From paper PMC4595830
Results are given in words; binding and its absence hold for the method and conditions named. In cells and extracts the contact can be indirect. A yes stands for co-enrichment or nearness to the bait. Other partners may have been found. For some of these results: A no says only that the protein was not detected with the bait.

Amino acid sequences for entries named in this document (tags omitted).
UniProt Q91YH6: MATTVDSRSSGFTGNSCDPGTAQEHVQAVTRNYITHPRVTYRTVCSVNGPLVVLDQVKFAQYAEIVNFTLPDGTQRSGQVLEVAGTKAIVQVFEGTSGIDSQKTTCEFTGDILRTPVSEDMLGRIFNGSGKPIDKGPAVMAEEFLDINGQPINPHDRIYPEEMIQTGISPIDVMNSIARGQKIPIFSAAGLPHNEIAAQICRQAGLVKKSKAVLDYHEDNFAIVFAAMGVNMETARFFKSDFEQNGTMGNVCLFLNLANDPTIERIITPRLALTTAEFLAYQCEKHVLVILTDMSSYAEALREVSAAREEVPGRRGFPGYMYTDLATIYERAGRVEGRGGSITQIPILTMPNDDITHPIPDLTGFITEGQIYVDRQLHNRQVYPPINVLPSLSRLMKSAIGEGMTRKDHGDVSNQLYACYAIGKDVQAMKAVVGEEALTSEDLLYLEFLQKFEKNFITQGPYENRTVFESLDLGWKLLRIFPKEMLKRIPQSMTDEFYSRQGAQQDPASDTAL
UniProt P80317: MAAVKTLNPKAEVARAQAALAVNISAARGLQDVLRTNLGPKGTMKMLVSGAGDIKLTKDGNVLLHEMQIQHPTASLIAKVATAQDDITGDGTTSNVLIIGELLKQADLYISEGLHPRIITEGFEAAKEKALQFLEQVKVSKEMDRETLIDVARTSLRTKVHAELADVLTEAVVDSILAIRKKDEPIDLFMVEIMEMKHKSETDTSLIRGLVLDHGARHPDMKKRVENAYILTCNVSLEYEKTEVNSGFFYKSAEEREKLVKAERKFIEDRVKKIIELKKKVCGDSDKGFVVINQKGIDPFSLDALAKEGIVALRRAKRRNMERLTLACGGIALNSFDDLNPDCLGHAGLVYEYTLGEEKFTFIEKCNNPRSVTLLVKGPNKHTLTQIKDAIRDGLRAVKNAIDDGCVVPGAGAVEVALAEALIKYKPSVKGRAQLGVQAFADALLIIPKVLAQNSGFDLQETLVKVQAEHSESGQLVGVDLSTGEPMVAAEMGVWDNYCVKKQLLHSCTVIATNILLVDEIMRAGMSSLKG
UniProt P80316: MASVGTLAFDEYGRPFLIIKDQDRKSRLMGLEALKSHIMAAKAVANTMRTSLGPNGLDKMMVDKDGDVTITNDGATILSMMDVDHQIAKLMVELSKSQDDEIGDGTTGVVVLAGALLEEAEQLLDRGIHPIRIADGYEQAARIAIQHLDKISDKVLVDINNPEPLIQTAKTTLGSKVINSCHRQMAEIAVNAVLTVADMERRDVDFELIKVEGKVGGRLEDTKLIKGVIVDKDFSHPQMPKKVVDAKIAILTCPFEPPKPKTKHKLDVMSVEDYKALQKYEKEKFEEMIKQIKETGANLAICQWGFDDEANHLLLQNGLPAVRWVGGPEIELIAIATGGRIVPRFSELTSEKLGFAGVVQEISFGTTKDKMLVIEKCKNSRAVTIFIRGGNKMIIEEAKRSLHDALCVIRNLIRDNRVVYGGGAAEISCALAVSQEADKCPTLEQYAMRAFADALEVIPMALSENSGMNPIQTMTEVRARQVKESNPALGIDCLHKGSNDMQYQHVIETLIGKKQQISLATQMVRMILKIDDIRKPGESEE
UniProt Q61390: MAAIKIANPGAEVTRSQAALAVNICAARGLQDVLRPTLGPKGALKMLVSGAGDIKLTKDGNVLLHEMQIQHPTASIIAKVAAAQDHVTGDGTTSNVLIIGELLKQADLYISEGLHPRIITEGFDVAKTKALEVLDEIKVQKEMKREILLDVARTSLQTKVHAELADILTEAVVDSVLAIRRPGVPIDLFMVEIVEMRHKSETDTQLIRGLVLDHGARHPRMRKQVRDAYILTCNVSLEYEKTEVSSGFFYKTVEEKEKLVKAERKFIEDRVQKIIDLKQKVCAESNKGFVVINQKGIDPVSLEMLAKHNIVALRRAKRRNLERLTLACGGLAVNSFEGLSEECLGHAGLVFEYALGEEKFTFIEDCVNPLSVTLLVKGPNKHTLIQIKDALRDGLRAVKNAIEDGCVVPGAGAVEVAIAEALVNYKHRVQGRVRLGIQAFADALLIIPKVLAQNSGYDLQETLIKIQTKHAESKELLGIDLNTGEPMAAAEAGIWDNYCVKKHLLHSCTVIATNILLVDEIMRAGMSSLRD
UniProt Q9D1K2: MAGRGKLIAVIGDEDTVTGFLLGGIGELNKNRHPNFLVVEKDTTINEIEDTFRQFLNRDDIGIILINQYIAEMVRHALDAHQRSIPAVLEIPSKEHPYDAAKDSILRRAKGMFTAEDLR
UniProt Q6PNC0: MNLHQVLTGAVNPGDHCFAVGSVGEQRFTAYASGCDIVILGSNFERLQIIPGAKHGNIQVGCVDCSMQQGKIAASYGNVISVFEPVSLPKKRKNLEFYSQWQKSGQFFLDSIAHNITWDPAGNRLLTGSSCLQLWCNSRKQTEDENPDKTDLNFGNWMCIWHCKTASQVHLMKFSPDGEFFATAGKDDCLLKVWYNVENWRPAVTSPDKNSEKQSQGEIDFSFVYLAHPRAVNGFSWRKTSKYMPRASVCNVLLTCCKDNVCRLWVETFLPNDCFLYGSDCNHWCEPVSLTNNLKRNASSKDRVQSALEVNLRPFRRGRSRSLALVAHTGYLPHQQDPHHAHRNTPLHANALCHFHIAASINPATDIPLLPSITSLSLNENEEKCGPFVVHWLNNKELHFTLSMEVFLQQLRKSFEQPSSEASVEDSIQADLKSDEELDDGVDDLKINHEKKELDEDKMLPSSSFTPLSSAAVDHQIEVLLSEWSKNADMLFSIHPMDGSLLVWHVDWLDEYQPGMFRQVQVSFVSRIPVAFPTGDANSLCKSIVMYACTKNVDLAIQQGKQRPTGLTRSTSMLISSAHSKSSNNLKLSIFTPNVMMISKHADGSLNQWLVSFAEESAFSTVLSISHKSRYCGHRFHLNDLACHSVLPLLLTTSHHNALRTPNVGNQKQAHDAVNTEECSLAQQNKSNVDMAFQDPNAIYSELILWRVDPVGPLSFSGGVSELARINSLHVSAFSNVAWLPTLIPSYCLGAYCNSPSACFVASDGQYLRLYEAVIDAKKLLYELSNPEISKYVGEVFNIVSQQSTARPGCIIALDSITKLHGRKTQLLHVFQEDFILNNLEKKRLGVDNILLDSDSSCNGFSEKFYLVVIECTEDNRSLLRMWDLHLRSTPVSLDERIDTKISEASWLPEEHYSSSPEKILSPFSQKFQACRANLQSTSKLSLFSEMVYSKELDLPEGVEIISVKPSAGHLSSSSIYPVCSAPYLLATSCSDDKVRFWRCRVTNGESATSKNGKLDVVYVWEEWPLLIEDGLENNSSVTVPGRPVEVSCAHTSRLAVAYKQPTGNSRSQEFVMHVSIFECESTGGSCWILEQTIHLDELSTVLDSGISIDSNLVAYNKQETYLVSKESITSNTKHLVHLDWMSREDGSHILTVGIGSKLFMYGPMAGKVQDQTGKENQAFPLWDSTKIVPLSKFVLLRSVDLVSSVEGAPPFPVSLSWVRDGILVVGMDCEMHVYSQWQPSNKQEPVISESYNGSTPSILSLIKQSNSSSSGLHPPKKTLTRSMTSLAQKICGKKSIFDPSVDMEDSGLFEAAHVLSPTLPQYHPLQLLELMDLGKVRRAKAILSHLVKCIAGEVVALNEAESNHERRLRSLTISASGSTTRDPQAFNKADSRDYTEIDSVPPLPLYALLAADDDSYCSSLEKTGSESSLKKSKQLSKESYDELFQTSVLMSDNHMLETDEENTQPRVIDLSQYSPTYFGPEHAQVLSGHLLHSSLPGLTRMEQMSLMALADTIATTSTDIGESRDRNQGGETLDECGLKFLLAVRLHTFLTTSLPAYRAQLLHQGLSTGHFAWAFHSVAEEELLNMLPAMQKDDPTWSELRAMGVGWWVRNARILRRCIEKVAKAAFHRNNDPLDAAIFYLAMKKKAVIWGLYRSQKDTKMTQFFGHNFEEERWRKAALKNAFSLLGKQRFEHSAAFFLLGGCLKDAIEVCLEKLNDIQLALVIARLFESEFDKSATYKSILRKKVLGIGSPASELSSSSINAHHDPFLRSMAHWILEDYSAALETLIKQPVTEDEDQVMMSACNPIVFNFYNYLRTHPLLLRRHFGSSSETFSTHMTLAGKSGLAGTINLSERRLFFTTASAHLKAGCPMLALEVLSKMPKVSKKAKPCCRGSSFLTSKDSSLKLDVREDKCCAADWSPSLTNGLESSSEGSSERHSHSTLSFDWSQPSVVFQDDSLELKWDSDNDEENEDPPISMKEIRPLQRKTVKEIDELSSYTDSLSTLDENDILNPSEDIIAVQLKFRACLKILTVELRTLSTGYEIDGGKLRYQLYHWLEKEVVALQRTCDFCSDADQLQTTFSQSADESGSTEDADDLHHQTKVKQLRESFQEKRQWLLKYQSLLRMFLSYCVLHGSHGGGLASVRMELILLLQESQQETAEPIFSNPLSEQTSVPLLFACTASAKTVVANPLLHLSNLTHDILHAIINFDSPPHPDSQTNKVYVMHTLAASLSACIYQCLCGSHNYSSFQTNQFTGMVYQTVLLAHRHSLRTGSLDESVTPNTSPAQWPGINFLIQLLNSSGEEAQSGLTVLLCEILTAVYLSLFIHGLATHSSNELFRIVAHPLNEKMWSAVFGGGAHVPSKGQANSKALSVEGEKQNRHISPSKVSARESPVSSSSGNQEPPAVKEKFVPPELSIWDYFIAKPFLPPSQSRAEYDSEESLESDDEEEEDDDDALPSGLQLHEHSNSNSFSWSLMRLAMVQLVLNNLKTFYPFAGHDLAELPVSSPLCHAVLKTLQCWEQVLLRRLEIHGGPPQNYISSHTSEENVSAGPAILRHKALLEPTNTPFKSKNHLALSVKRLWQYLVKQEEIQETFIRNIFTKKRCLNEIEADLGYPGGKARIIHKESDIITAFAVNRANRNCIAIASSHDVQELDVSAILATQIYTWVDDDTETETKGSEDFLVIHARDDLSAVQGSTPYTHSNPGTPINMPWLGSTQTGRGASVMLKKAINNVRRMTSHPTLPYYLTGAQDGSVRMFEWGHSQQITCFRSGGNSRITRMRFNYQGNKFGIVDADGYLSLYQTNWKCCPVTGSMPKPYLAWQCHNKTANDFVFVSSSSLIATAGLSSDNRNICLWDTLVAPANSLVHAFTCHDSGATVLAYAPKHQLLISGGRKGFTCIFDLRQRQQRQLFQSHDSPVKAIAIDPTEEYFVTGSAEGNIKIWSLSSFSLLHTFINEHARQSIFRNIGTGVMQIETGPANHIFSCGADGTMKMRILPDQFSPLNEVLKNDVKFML
UniProt P18654: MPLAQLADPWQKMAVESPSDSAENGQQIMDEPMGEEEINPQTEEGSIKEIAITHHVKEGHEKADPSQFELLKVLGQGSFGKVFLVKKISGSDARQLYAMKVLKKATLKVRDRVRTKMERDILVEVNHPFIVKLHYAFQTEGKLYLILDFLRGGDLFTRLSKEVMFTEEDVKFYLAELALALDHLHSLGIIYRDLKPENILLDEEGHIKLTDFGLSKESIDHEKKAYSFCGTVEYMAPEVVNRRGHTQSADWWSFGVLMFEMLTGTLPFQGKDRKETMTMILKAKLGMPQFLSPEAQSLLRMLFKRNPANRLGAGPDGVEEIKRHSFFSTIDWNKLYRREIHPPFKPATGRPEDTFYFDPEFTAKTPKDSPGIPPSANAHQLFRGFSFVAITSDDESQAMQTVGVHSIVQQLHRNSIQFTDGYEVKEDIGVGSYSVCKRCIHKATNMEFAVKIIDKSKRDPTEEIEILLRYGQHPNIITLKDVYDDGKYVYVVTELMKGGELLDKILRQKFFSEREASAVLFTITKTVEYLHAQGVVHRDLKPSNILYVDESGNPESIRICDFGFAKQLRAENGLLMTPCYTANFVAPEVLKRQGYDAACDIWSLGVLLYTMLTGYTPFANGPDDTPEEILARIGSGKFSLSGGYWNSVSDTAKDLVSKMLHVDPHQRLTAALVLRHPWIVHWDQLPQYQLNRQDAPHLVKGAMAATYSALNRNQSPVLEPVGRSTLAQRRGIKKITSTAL
UniProt P11983: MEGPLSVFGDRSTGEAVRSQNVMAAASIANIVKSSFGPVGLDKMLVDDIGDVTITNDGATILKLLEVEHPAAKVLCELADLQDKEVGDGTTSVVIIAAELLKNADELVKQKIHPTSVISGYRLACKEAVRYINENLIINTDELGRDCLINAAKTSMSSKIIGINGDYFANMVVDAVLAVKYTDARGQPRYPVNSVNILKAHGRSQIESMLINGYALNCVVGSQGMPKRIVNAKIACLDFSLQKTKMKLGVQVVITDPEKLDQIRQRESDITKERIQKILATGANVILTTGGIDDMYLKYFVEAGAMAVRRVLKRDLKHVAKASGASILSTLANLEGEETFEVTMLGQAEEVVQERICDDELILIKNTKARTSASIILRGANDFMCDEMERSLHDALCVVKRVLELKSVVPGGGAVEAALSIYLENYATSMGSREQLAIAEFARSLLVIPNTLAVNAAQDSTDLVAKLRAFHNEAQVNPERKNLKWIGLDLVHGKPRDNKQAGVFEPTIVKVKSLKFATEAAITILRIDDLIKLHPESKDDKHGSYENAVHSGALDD

B1: chaperonin containing Tcp1, subunit 7 (eta) (protein, UniProt P80313 1-544)
chain: MMPTPVILLKEGTDSSQGIPQLVSNISACQVIAEAVRTTLGPRGMDKLIVDGRGKATISNDGATILKLLDVVHPAAKTLVDIAKSQDAEVGDGTTSVTLLAAEFLKQVKPYVEEGLHPQIIIRAFRTATQLAVNKIKEIAVTVKKQDKVEQRKMLEKCAMTALSSKLISQQKVFFAKMVVDAVMMLDELLQLKMIGIKKVQGGALEESQLVAGVAFKKTFSYAGFEMQPKKYKNPKIALLNVELELKAEKDNAEIRVHTVEDYQAIVDAEWNILYDKLEKIHQSGAKVILSKLPIGDVATQYFADRDMFCAGRVPEEDLKRTMMACGGSIQTSVNALVPDVLGHCQVFEETQIGGERYNFFTGCPKAKTCTIILRGGAEQFMEETERSLHDAIMIVRRAIKNDSVVAGGGAIEMELSKYLRDYSRTIPGKQQLLIGAYAKALEIIPRQLCDNAGFDATNILNKLRARHAQGGMWYGVDINNENIADNFQAFVWEPAMVRINALTAASEAACLIVSVDETIKNPRSTVDPPAPSAGRGRGQARFH
B2: solute carrier family 10, member 2 (protein, UniProt P70172 1-348)
chain: MDNSSVCPPNATVCEGDSCVVPESNFNAILNTVMSTVLTILLAMVMFSMGCNVEVHKFLGHIKRPWGIFVGFLCQFGIMPLTGFILSVASGILPVQAVVVLIMGCCPGGTGSNILAYWIDGDMDLSVSMTTCSTLLALGMMPLCLFVYTKMWVDSGTIVIPYDSIGISLVALVIPVSFGMFVNHKWPQKAKIILKIGSITGVILIVLIAVIGGILYQSAWIIEPKLWIIGTIFPIAGYSLGFFLARLAGQPWYRCRTVALETGMQNTQLCSTIVQLSFSPEDLNLVFTFPLIYTVFQLVFAAVILGIYVTYRKCYGKNDAEFLEKTDNEMDSRPSFDETNKGFQPDEK
B3: Rho guanine nucleotide exchange factor (GEF7) (protein, UniProt Q9ES28 1-862)
chain: MNSAEQTVTWLITLGVLESPKKTISDPEVFLQASLKDGVVLCRLLERLLPGTIEKVYPEPRNESECLSNIREFLRACGASLRLETFDANDLYQGQNFNKVLSSLVTLNKVTADIGLGSDSVCARPSSHRIKSFDSLGSQSSHSRTSKLLQSQYRSLDMTDNTNSQLVVRAKFNFQQTNEDELSFSKGDVIHVTRVEEGGWWEGTHNGRTGWFPSNYVREIKPSEKPVSPKSGTLKSPPKGFDTTAINKSYYNVVLQNILETEHEYSKELQSVLSTYLRPLQTSDKLSSANTSYLMGNLEEISSFQQVLVQSLEECTKSPEAQQRVGGCFLSLMPQMRTLYLAYCANHPSAVSVLTEHSEDLGEFMETKGASSPGILVLTTGLSKPFMRLDKYPTLLKELERHMEDYHPDRQDIQKSMTAFKNLSAQCQEVRKRKELELQILTEPIRSWEGDDIKTLGSVTYMSQVTIQCAGSEEKNERYLLLFPNLLLMLSASPRMSGFIYQGKLPTTGMTITKLEDSENHRNAFEISGSMIERILVSCTSQQDLHEWVEHLQKQTKVTSVSNPTIKPHSVPSHTLPSHPLTPSSKHADSKPVALTPAYHTLPHPSHHGTPHTTISWGPLEPPKTPKPWSLSCLRPAPPLRPSAALCYKEDLSKSPKTMKKLLPKRKPERKPSDEEFAVRKSTAALEEDAQILKVIEAYCTSAKTRQTLNSTWQGTDLMHNHVLADDDQSSLDSLGRRSSLSRLEPSDLSEDSEYDSIWTAHSYRMGSASRSRKESAPQVLLPEEEKIIVEETKSNGQTVIEEKSLVDTVYALKDEVQELRQDNKKMKKSLEEEQRARKDLEKLVRKVLKNMNDPAWDETNL
B4: chaperonin containing Tcp1, subunit 3 (gamma) (protein, UniProt P80318 1-545)
chain: MMGHRPVLVLSQNTKRESGRKVQSGNINAAKTIADIIRTCLGPKSMMKMLLDPMGGIVMTNDGNAILREIQVQHPAAKSMIEISRTQDEEVGDGTTSVIILAGEMLSVAEHFLEQQMHPTVVISAYRMALDDMISTLKKISTPVDVNNREMMLSIINSSITTKVISRWSSLACNIALDAVKTVQFEENGRKEIDIKKYARVEKIPGGIIEDSCVLRGVMINKDVTHPRMRRYIKNPRIVLLDSSLEYKKGESQTDIEITREEDFTRILQMEEEYIHQLCEDIIQLKPDVVITEKGISDLAQHYLMRANVTAIRRVRKTDNNRIARACGARIVSRPEELREDDVGTGAGLLEIKKIGDEYFTFITDCKDPKACTILLRGASKEILSEVERNLQDAMQVCRNVLLDPQLVPGGGASEMAVAHALTEKSKAMTGVEQWPYRAVAQALEVIPRTLIQNCGASTIRLLTSLRAKHTQESCETWGVNGETGTLVDMKELGIWEPLAVKLQTYKTAVETAVLLLRIDDIVSGHKKKGDDQNRQTGAPDAGQE
B5: chaperonin containing Tcp1, subunit 2 (beta) (protein, UniProt P80314 1-535)
chain: MASLSLAPVNIFKAGADEERAETARLSSFIGAIAIGDLVKSTLGPKGMDKILLSSGRDAALMVTNDGATILKNIGVDNPAAKVLVDMSRVQDDEVGDGTTSVTVLAAELLREAESLIAKKIHPQTIISGWREATKAAREALLSSAVDHGSDEARFWQDLMNIAGTTLSSKLLTHHKDHFTKLAVEAVLRLKGSGNLEAIHVIKKLGGSLADSYLDEGFLLDKKIGVNQPKRIENAKILIANTGMDTDKIKIFGSRVRVDSTAKVAEIEHAEKEKMKEKVERILKHGINCFINRQLIYNYPEQLFGAAGVMAIEHADFAGVERLALVTGGEIASTFDHPELVKLGSCKLIEEVMIGEDKLIHFSGVALGEACTIVLRGATQQILDEAERSLHDALCVLAQTVKDPRTVYGGGCSEMLMAHAVTQLANRTPGKEAVAMESFAKALRMLPTIIADNAGYDSADLVAQLRAAHSEGHITAGLDMKEGTIGDMAVLGITESFQVKRQVLLSAAEAAEVILRVDNIIKAAPRKRVPDHHPC
B6: ATPase, H+ transporting, lysosomal V1 subunit C2 (protein, UniProt Q99L60 1-427)
chain: MSEFWLISAPGDKENLQALERMNNVTSKSNLSHNTKFAIPDFKVGTLDSLVGLSDELGKLDTFAESLIKRMAQSVVEVMEDSKGKAHETLLANGVDLTSFVTHFEWDMAKYPAKQPLVSVVDTLAKQLAQIETDLKSRTAAYSVLKANLENLEKRSTGNLFTRTLSDIVSKEDFVLDSEYLITLLVIVPKSSFAQWQKTYESLSDMVVPRSTKLIAEDNEGGLFTVTLFRKVIEDFKVKAKENKFIVREFYYDEKEIKREREEMTRLLSDKKQQYPTSCVALKKGSATYRDHKVKVAPLGNPARPAAGQTDRDRESEGEGEGPLLRWLKVNFSEAFIAWIHIKALRVFVESVLRYGLPVNFQAVLLQPHKKSATKRLREVLNSVFRHLDEVAAASILDASVEIPGLQLSNQDYFPYVYFHIDLSLLD
B7: chaperonin containing Tcp1, subunit 4 (delta) (protein, UniProt P80315 1-539)
chain: MPENVASRSGAPTAGPGSRGKSAYQDRDKPAQIRFSNISAAKAVADAIRTSLGPKGMDKMIQDGKGDVTITNDGATILKQMQVLHPAARMLVELSKAQDIEAGDGTTSVVIIAGSLLDSCTKLLQKGIHPTIISESFQKALEKGLEILTDMSRPVQLSDRETLLNSATTSLNSKVVSQYSSLLSPMSVNAVMKVIDPATATSVDLRDIKIVKKLGGTIDDCELVEGLVLTQKVANSGITRVEKAKIGLIQFCLSAPKTDMDNQIVVSDYAQMDRVLREERAYILNLVKQIKKTGCNVLLIQKSILRDALSDLALHFLNKMKIMVVKDVEREDIEFICKTIGTKPVAHIDQFTADMLGSAELAEEVSLNGSGKLFKITGCTSPGKTVTIVVRGSNKLVIEEAERSIHDALCVIRCLVKKRALIAGGGAPEIELALRLTEYSRTLSGMESYCVRAFADAMEVIPSTLAENAGLNPISTVTELRNRHAQGEKTTGINVRKGGISNILEEMVVQPLLVSVSALTLATETVRSILKIDDVVNTR
B8: ATPase, H+ transporting, lysosomal V1 subunit G3 (protein, UniProt Q8BMC1 1-118)
chain: MTSQSQGIQQLLQAEKRAKDKLDEAKKRKGKRLRQAKEEAVAETDQYRMQMEKDFRLKQAKIMGSQSHLSDEIEEQTLEKIKELNGSYNKCMESVIKQLLSMVCDMKPEVHVNYRATN
B9: chaperonin containing Tcp1, subunit 8 (theta) (protein, UniProt P42932 1-548)
chain: MALHVPKAPGFAQMLKDGAKHFSGLEEAVYRNIQACKELAQTTRTAYGPNGMNKMVINRLEKLFVTNDAATILRELEVQHPAAKMIVMASHMQEQEVGDGTNFVLVFAGALLELAEELLRIGLSVSEVISGYEIACKKAHEILPELVCCSAKNLRDVDEVSSLLRTSIMSKQYGSETFLAKLIAQACVSIFPDSGNFNVDNIRVCKILGSGIYSSSVLHGMVFKKETEGDVTSVKDAKIAVYSCPFDGMITETKGTVLIKTAEELMNFSKGEENLMDAQVKAIAGTGANVIVTGGKVADIALHYANKYNIMLVRLNSKWDLRRLCKTVGATALPKLTPPVQEEMGHCDSVYLSEVGDTQVVVFKHEKEDGAISTIVLRGSTDNLMDDIERAVDDGVNTFKVLTRDKRLVPGGGATEIELAKQITSYGETCPGLEQYAIKKFAEAFEAIPRALAENSGVKANEVISKLYSVHQEGNKNVGLDIEAEVPAVKDMLEASILDTYLGKYWAIKLATNAAVTVLRVDQIIMAKPAGGPKPPSGKKDWDDDQND

Molecular target: ATPase, H+ transporting, lysosomal V1 subunit B1 (mouse (endogenous in kidney)) (UniProt Q91YH6)
Test: affinity purification with mass spectrometry; anti-ATP6V1B1 antibodies cross-linked to Protein A/G Plus agarose; mouse kidney lysate (20 mM Hepes-NaOH pH 7.5, 150 mM NaCl, 1% NP-40); SDS-PAGE, LC-MS/MS, scored with CRAPome/SAINT against beads-only, B1-knockout and peptide-blocked controls

| binding | Molecule |
| --- | --- |
| binds | B1 |
| binds | B2 |
| binds | B3 |
| binds | B4 |
| binds | B5 |
| binds | B6 |
| binds | B7 |
| binds | B8 |
| binds | B9 |

Molecular target: ATPase, H+ transporting, lysosomal V1 subunit B1 (mouse (endogenous in kidney)) (UniProt Q91YH6)
Test: as above
Remark: another data set of the same source

| binding | Molecule |
| --- | --- |
| no binding | ATP6V0B (from UniProt Q91V37 1-205) |
| binds | chaperonin containing Tcp1, subunit 6a (zeta) (from UniProt P80317 1-531) |
| binds | chaperonin containing Tcp1, subunit 5 (epsilon) (from UniProt P80316 1-541) |
| no binding | ATP6V0A2 (from UniProt P15920 1-856) |
| binds | Dmx-like 2 (from UniProt Q8BPN8 1-3032) |
| binds | ATPase, H+ transporting, lysosomal V1 subunit H (from UniProt Q8BVE3 1-483) |
| binds | ATPase, H+ transporting, lysosomal V1 subunit D (from UniProt P57746 1-247) |
| binds | chaperonin containing Tcp1, subunit 6b (zeta) (from UniProt Q61390 1-531) |
| binds | ATPase, H+ transporting, lysosomal V1 subunit F (from UniProt Q9D1K2 1-119) |
| binds | Dmx-like 1 (from UniProt Q6PNC0 1-3013) |
| no binding | ATP6V0A3 (from UniProt Q9JHF5) |
| binds | ribosomal protein S6 kinase polypeptide 3 (from UniProt P18654 1-740) |
| binds | t-complex protein 1 (from UniProt P11983 1-556) |
| binds | WD repeat domain 7 (from UniProt Q920I9 1-1489) |
| no binding | ATP6V0E2 (from UniProt Q91XE7 1-81) |
| binds | ATPase, H+ transporting, lysosomal V1 subunit A (from UniProt P50516 1-617) |
